# Measured values taken from patent US6403554B2, “Polyunsaturated fatty acid derivatives and their use” (Ardenia Investments Ltd., priority 1998, dated 2002).
# “Also recorded” adds a separate entry of the source. Some results were stated once for a whole list of compounds, not compound by compound.
# Tested on: antibody-forming cells (AFC) in the spleen
# Assay: Influence of compound on humoral immune response to sheep erythrocytes, C57B1/6 female mice (AFC in spleen, hemagglutinins)
# Assay type: in vivo
# Settings: 136.5 μg/mouse
# Procedure: The increase was calculated as compared with the amount of cells in the animals immunised only with sheep erythrocytes.
# 0.15 ml of compound 10 was administered intravenously to 6 mice females of CS7B1/6 line (weight 18-22 g) in doses of 45.5, 91 and 136.5 μg of compound 10 per capita for each testing group according to the dose. Simultaneously, a suspension of 5·10^7 sheep erythrocytes was injected intraperitoneally (0.2 ml per capita). Mice in the control group were injected intravenously with equal volume of saline. The effects of compound 10 on humoral immune response were analyzed both by counting the quantity of AFC in the spleen according to Cunningham (per 10^6 spleen cells and per spleen) and estimating the titers of hemagglutining antibodies in serum of the animals (Cunningham A. J., Nature, 1965, Vol.207, No 5001. P.1106-1107), while the titers of hemagglutinating antibodies were evaluated according to litterature (Evans J. et al., Cell, 1974; Vol 3., p.153-158, Feizi T., Menger E., Transfusion, 1970, Vol. 10, p.33-35,).
# (§1) 0.15 ml of compound 11 was administered intravenously to 6 female mice of the C57B1/6 line (weight 18-22 g) in doses of 45.5, 91 and 136.5 μg of compound 11 per capita for each testing group according to the dose. Simultaneously, a suspension of 5·10^7 sheep erytrocytes was injected intraperitoneally (0.2 ml per capita). […] The effects of compound 11 on humoral immune response was analysed both by counting the quantity of AFC in the spleen according to Cunningham (per 10^6 spleen cells and per spleen) and estimating the titers of hemagglutining antibodies in serum of the animals.
# as §1, with “12” for “11”, “dose.” for “dose. Simultaneously, a suspension of 5·10^7 sheep erytrocytes was injected intraperitoneally (0.2 ml per capita).”, “analyzed” for “analysed”, “animals. […]” for “animals.”
smiles,measurement,setting,value
"CC/C=C\C/C=C\C/C=C\C/C=C\C/C=C\C/C=C\CCC(=O)N[C@@H](COP(=O)(O)O)C(=O)O [Compound 10, N-(cis-4,7,10,13,16,19-docosahexaenoyl)-O-phospho-L-serine]",immunostimulating action,,displayed an immunostimulating action; also recorded: display immunostimulating effect in vivo in micelle form
"CC/C=C\C/C=C\C/C=C\C/C=C\C/C=C\C/C=C\CCC(=O)N[C@H](C(=O)O)[C@@H](C)OP(=O)(O)O [Compound 11, N-(cis-4,7,10,13,16,19-docosahexaenoyl)-O-phospho-L-threonine]",immunostimulating action,listed as compound 11,displayed an immunostimulating action; also recorded: display immunostimulating effect in vivo in micelle form
"CC/C=C\C/C=C\C/C=C\CCCCCCCC(=O)N[C@H](C(=O)O)[C@@H](C)OP(=O)(O)O [Compound 19, N-(cis-9,12,15-octadecatrienoyl)-O-phospho-L-threonine]",immunostimulating action,listed as compound 19,displayed an immunostimulating action; also recorded: display immunostimulating effect in vivo in micelle form
